No end group written: not given here.
Assay: peptide synthesis
Conditions: whole synthesis, UV 215 nm

With “CFGLKLDRIGSMSGLGC (cysteine pairing not given here)” the “final HPLC purity” value was 99.2%.

From patent US20240376153A1 (Igisu Co., Ltd., priority 2015, published 2024)
